Results are given in words; binding and its absence hold for the method and conditions named. In cells and extracts the contact can be indirect. Some results given as binding are weak or reduced against the parent protein; the word gives no strength. Each block holds one molecule with its values, some of them ahead of it.
Target: T1, fasciculation and elongation protein zeta-1 (FEZ1) (mouse (endogenous in HT22)) (UniProt Q8K0X8)
T1 sequence: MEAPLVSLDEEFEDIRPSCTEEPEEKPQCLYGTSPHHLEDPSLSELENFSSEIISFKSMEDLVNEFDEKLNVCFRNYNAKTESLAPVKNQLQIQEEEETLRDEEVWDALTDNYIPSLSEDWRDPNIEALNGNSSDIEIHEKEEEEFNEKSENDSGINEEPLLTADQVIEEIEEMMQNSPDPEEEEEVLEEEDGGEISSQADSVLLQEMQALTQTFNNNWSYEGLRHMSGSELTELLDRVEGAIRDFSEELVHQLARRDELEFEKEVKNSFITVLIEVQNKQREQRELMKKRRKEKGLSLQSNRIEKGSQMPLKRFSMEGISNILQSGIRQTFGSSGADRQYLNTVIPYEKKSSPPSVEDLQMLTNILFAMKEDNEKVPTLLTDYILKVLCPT
Test: co-IP; FEZ1 IP antibody added to RIPA lysate of cultured cells, overnight at 4°C; captured on Protein G/A agarose beads, washed 3 times with RIPA buffer; Western blot detection; IgG as negative control

Chains of the proteins cited; added tags and fusions are not shown.
UniProt Q78YZ6: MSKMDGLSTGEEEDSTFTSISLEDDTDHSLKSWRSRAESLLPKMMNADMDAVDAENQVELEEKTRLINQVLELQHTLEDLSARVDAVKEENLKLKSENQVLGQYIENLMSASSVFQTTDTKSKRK

binding: binds
Molecule: short coiled-coil protein (SCOC) (from UniProt Q78YZ6 1-125)

binding: binds
B1: unc-51 like autophagy activating kinase 1 (ULK1) (protein, UniProt O70405 1-1051)
chain: MEPGRGGVETVGKFEFSRKDLIGHGAFAVVFKGRHREKHDLEVAVKCINKKNLAKSQTLLGKEIKILKELKHENIVALYDFQEMANSVYLVMEYCNGGDLADYLHTMRTLSEDTVRLFLQQIAGAMRLLHSKGIIHRDLKPQNILLSNPGGRRANPSNIRVKIADFGFARYLQSNMMAATLCGSPMYMAPEVIMSQHYDGKADLWSIGTIVYQCLTGKAPFQASSPQDLRLFYEKNKTLVPAIPRETSAPLRQLLLALLQRNHKDRMDFDEFFHHPFLDASTPIKKSPPVPVPSYPSSGSGSSSSSSSASHLASPPSLGEMPQLQKTLTSPADAAGFLQGSRDSGGSSKDSCDTDDFVMVPAQFPGDLVAEAASAKPPPDSLLCSGSSLVASAGLESHGRTPSPSPTCSSSPSPSGRPGPFSSNRYGASVPIPVPTQVHNYQRIEQNLQSPTQQQTARSSAIRRSGSTTPLGFGRASPSPPSHTDGAMLARKLSLGGGRPYTPSPQVGTIPERPSWSRVPSPQGADVRVGRSPRPGSSVPEHSPRTTGLGCRLHSAPNLSDFHVVRPKLPKPPTDPLGATFSPPQTSAPQPCPGLQSCRPLRGSPKLPDFLQRSPLPPILGSPTKAGPSFDFPKTPSSQNLLTLLARQGVVMTPPRNRTLPDLSEASPFHGQQLGSGLRPAEDTRGPFGRSFSTSRITDLLLKAAFGTQASDSGSTDSLQEKPMEIAPSAGFGGTLHPGARGGGASSPAPVVFTVGSPPSGATPPQSTRTRMFSVGSSSSLGSTGSSSARHLVPGACGEAPELSAPGHCCSLADPLAANLEGAVTFEAPDLPEETLMEQEHTETLHSLRFTLAFAQQVLEIAALKGSASEAAGGPEYQLQESVVADQISQLSREWGFAEQLVLYLKVAELLSSGLQTAIDQIRAGKLCLSSTVKQVVRRLNELYKASVVSCQGLSLRLQRFFLDKQRLLDGIHGVTAERLILSHAVQMVQSAALDEMFQHREGCVPRYHKALLLLEGLQHTLTDQADIENIAKCKLCIERRLSALLSGVYA

Reference: PMC9191875
